# Source: the supplement of paper PMC6411743
# Sequences of proteins named here, by UniProt entry; tags and fusion partners are left off. A change or cut given only in a name is not applied to a line headed by its entry.
# UniProt Q9H4G4: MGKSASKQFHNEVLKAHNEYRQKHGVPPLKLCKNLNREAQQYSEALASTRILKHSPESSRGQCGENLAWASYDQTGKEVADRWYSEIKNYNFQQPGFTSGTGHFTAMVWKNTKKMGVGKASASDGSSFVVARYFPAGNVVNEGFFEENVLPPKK
# UniProt Q9H6E4: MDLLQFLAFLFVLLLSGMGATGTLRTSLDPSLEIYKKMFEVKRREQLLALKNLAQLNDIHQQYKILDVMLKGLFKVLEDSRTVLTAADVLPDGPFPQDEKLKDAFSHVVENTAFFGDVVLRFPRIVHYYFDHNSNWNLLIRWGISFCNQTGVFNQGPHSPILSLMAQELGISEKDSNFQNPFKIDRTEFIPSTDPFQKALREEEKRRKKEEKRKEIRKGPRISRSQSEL
# UniProt Q9HCN8: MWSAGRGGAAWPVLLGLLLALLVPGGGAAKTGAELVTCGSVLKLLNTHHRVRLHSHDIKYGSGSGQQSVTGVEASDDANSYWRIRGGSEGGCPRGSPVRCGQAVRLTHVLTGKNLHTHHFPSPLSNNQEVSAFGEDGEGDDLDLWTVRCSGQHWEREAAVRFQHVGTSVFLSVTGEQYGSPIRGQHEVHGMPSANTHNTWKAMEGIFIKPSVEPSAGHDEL
# UniProt Q9H9A6: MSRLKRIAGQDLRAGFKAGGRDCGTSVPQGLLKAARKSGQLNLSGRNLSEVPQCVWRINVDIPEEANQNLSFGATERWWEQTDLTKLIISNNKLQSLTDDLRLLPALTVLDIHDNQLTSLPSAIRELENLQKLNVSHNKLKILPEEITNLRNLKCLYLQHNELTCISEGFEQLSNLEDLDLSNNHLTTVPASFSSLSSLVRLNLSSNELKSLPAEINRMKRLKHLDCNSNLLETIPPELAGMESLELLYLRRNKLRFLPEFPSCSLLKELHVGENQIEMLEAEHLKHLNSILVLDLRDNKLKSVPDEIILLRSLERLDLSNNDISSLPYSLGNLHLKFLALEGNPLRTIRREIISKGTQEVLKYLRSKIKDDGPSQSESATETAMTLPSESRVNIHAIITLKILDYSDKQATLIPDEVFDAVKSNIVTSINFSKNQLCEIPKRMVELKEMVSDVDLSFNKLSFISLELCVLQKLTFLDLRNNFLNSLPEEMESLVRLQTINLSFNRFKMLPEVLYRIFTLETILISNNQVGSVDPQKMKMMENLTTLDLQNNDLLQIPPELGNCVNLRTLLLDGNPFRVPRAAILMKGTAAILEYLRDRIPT
# UniProt Q9HBL8: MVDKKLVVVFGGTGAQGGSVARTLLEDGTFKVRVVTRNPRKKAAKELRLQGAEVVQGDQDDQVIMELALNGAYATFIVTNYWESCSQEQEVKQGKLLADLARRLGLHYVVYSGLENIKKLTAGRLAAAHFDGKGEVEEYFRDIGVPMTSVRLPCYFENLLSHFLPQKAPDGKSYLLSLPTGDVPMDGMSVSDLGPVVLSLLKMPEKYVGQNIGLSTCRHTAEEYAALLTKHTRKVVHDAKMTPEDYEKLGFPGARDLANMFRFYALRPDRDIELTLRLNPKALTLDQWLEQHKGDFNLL
# UniProt Q9H0R6: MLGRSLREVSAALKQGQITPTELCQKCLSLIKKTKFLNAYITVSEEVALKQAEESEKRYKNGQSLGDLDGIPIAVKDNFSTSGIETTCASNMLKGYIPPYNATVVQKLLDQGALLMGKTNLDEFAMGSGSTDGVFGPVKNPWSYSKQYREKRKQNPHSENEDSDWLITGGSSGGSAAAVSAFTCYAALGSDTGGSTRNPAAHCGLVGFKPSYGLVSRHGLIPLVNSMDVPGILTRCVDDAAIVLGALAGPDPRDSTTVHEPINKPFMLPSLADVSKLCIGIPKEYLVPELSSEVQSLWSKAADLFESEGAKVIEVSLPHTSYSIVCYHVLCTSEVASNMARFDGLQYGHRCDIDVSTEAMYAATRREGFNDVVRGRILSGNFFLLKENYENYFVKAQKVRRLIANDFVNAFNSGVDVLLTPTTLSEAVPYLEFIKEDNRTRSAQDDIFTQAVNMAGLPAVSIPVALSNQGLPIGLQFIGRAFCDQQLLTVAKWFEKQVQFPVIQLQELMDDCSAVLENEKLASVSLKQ
# UniProt Q9C0B5: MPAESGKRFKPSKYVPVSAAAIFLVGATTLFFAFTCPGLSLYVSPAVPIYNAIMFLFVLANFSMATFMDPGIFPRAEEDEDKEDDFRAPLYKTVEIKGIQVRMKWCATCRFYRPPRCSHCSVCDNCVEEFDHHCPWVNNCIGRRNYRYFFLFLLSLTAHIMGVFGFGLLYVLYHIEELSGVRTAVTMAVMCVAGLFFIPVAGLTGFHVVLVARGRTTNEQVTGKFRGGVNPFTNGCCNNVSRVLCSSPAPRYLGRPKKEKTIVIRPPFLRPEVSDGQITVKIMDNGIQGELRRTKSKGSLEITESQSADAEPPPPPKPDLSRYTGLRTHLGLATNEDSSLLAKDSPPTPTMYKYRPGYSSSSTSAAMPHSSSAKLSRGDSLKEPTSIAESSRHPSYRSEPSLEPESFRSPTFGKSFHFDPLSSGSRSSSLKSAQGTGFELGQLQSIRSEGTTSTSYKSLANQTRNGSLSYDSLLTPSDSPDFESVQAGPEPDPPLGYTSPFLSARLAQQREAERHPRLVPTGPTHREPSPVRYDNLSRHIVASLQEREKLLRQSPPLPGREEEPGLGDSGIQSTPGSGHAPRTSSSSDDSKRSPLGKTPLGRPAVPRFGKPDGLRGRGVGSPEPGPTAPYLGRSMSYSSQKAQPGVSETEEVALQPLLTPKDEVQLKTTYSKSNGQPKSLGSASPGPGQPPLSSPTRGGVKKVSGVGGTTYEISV
# UniProt Q9H977: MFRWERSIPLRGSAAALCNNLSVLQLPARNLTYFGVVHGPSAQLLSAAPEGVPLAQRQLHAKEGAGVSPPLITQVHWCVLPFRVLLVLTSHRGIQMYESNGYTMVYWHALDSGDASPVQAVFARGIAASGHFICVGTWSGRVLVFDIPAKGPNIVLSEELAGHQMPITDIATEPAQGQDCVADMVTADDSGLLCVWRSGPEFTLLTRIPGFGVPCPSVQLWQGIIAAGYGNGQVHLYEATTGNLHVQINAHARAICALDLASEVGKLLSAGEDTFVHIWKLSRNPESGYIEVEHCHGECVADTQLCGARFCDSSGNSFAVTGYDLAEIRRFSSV
# UniProt Q9H008: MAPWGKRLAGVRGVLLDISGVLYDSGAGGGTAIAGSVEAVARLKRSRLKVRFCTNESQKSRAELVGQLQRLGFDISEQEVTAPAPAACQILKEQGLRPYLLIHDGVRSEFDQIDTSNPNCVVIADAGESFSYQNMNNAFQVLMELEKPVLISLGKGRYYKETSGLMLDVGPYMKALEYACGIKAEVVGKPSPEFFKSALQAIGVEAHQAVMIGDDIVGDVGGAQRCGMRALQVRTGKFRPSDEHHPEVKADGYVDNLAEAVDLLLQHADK
# UniProt Q9HBU6: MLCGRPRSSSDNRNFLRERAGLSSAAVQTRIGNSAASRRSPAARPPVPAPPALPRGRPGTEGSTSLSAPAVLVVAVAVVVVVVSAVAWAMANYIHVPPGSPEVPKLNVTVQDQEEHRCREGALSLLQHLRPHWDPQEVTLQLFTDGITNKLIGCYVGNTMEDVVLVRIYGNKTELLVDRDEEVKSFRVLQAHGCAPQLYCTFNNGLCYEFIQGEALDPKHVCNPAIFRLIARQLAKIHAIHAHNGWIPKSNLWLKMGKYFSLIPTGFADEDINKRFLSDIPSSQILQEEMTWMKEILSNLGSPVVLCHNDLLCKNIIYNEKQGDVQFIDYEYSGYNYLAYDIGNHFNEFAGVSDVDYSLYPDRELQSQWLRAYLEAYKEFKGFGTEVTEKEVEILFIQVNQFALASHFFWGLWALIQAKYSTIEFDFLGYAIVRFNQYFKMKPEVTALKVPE
# UniProt Q9H3K2: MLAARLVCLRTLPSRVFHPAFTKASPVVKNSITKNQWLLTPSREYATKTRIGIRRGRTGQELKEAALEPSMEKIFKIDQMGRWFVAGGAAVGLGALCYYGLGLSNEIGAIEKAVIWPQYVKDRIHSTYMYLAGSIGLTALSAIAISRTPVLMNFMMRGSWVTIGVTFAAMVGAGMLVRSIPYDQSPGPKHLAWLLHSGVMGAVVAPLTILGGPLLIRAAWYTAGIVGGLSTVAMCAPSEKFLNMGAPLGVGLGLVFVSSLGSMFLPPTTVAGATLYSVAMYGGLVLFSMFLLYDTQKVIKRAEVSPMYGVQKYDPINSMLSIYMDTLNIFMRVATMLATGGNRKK
# UniProt Q9NPB8: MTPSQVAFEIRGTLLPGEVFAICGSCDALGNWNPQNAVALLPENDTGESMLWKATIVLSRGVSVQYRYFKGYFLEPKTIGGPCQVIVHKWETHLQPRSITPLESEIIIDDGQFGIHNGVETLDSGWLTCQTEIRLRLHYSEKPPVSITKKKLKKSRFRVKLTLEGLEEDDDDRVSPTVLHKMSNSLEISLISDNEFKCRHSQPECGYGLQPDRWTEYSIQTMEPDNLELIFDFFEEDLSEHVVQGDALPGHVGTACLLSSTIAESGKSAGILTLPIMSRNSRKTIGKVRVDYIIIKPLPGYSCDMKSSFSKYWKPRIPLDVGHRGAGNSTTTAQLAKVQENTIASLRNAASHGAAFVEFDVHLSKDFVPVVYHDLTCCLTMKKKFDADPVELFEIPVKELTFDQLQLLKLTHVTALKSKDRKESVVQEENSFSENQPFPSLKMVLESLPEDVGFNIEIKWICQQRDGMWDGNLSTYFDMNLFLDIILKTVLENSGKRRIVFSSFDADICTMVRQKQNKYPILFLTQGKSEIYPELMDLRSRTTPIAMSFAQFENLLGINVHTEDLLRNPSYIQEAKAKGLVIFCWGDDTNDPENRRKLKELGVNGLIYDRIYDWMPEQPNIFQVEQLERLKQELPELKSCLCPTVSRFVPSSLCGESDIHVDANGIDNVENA
# UniProt Q9HAT2: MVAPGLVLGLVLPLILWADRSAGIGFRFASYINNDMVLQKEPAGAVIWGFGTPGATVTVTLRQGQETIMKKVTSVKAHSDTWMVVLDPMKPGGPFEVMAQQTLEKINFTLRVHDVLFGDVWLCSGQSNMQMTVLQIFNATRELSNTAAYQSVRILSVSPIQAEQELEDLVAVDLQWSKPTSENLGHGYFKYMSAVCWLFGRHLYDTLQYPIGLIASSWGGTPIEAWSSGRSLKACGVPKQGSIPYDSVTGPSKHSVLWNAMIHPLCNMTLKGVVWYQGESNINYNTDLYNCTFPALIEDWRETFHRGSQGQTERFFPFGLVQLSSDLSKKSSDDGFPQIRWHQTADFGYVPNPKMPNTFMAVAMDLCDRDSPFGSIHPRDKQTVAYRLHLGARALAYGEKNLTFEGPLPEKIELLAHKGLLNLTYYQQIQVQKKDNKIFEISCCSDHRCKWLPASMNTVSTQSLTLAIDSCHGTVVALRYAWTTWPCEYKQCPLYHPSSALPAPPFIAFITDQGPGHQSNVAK
# UniProt Q9C0B1, whole entry, looked up: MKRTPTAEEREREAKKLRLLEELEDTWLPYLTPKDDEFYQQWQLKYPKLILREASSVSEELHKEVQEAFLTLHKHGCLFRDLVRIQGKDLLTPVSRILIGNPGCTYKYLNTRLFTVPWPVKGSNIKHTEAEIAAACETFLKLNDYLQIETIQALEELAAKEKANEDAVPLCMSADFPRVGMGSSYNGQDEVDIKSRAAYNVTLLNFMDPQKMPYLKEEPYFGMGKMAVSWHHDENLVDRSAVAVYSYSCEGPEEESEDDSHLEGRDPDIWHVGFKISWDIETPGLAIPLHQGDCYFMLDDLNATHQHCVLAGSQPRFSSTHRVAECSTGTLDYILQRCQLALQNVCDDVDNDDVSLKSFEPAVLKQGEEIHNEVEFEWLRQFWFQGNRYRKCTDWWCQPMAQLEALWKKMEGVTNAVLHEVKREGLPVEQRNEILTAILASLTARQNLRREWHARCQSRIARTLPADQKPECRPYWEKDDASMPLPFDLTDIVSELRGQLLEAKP
# UniProt Q9C0D3: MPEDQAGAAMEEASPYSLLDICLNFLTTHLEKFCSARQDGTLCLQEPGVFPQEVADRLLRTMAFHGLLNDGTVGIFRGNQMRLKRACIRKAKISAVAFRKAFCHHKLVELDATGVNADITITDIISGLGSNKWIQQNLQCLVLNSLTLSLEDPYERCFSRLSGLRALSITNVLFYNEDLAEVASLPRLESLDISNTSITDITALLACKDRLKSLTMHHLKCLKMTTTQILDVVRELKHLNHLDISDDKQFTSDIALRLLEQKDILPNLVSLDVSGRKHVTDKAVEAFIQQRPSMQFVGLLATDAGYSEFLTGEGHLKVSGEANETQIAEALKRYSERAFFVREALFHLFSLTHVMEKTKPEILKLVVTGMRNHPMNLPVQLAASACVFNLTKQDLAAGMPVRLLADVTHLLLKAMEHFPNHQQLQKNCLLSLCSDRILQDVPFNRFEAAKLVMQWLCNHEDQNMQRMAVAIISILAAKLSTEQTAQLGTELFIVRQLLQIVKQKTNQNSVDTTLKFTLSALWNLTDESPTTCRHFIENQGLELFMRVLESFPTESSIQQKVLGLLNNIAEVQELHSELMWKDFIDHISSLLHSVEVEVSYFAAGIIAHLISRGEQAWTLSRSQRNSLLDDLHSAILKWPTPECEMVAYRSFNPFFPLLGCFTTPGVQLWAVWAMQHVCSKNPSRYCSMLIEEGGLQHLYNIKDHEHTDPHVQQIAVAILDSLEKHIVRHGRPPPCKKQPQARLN
# ± gives the standard deviation of the averaged measurements. The list shows a part of the results, in another mix than the full data. Small differences around the control level are noise.
# Compound: Nc1ncnc2c1ncn2[C@@H]1O[C@H](COP(=O)(O)OP(=O)(O)NP(=O)(O)O)[C@@H](O)[C@H]1O [adenylyl imidodiphosphate]
# Test: NP40-soluble protein abundance relative to vehicle (solubility fold change) (ratio); higher = more soluble protein in presence of AMP-PNP
# Settings: concentration: 0.1mM
# Outline: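 In three independent experiments, Jurkat crude lysate made by Dounce homogenisation was treated for 10 min at room temperature and then 3 min at 37 °C with eight concentrations ranging from 0.1 to 10 mM. It was then solubilised with 0.8% NP40 plus benzonase for 60 min at 4 °C and ultracentrifuged. The supernatant was TMT-labelled for LC-MS/MS, and each value is the fold change against the detergent-processed vehicle for the same replicate, using vsn-normalised intensities.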
row,Target,NP40-soluble protein abundance
1,ZWILCH (UniProt Q9H900),1.01 ± 0.059
2,UniProt Q9GZS1-2,0.997 ± 0.024
3,UniProt Q9H6W3,1.01 ± 0.04
4,UniProt Q9H583 and related entries,0.994 ± 0.041
5,TAF9B (UniProt Q9HBM6),0.995 ± 0.024
6,UniProt Q9BZE9 and related entries,0.986 ± 0.034
7,UniProt Q9H6Q4,1.02 ± 0.025
8,UniProt Q9C0F1,0.993 ± 0.029
9,UniProt Q9H7H0 and related entries,1.01 ± 0.047
10,GLIPR2 (UniProt Q9H4G4),1.01 ± 0.057
11,CCDC134 (UniProt Q9H6E4),1.01 ± 0.021
12,UniProt Q9HDC9,0.994 ± 0.015
13,UniProt Q9GZY8-2,1.025 ± 0.0075
14,SDF2L1 (UniProt Q9HCN8),1 ± 0.016
15,UniProt Q9H078-2,1.03 ± 0.036
16,YTHDC2 (UniProt Q9H6S0),1.05 ± 0.025
17,LRRC40 (UniProt Q9H9A6),1.01 ± 0.047
18,NMRAL1 (UniProt Q9HBL8),1.01 ± 0.036
19,QRSL1 (UniProt Q9H0R6),0.9459 ± 0.0077

row,Target,NP40-soluble protein abundance
1,UniProt Q9C0B5 and related entries,1.01 ± 0.03
2,UniProt Q9H1I8 and related entries,1.01 ± 0.018
3,MTIF3 (UniProt Q9H2K0),0.9908 ± 0.0062
4,WDR54 (UniProt Q9H977),1.02 ± 0.027
5,UniProt Q9H2U1 and related entries,1.02 ± 0.017
6,UniProt Q9H0C5 and related entries,0.985 ± 0.034
7,LHPP (UniProt Q9H008),1.05 ± 0.02
8,ETNK1 (UniProt Q9HBU6),1.02 ± 0.042
9,UniProt Q9NP87,1.01 ± 0.032
10,REXO4 (UniProt Q9GZR2),1 ± 0.029
11,GHITM (UniProt Q9H3K2),1 ± 0.037
12,PNN (UniProt Q9H307),0.988 ± 0.11
13,UniProt Q9NPB8 and related entries,1.024 ± 0.0037
14,MIS12 (UniProt Q9H081),1.01 ± 0.062
15,UniProt Q9HAT2 and related entries,0.985 ± 0.042
16,TSPYL1 (UniProt Q9H0U9),0.993 ± 0.016
17,UniProt Q9H2V7 and related entries,0.988 ± 0.016
18,FTO (UniProt Q9C0B1),0.99 ± 0.024
19,UniProt Q9C0D3 and related entries,1.04 ± 0.046

# Same assay, conditions: concentration: 0.5mM
row,Target,NP40-soluble protein abundance
1,ZWILCH (UniProt Q9H900),0.996 ± 0.036
2,UniProt Q9GZS1-2,0.971 ± 0.033
3,UniProt Q9H6W3,0.98 ± 0.069
4,UniProt Q9H583 and related entries,0.993 ± 0.014
5,TAF9B (UniProt Q9HBM6),0.982 ± 0.024
6,UniProt Q9BZE9 and related entries,0.999 ± 0.077
7,UniProt Q9H6Q4,0.987 ± 0.01
8,UniProt Q9C0F1,1.03 ± 0.046
9,UniProt Q9H7H0 and related entries,0.975 ± 0.029
10,GLIPR2 (UniProt Q9H4G4),1 ± 0.038
11,CCDC134 (UniProt Q9H6E4),1.02 ± 0.044
12,UniProt Q9HDC9,0.9611 ± 0.0083
13,UniProt Q9GZY8-2,0.9957 ± 0.0057
14,SDF2L1 (UniProt Q9HCN8),0.988 ± 0.033
15,UniProt Q9H078-2,1.01 ± 0.014
16,YTHDC2 (UniProt Q9H6S0),1.03 ± 0.023
17,LRRC40 (UniProt Q9H9A6),0.977 ± 0.034
18,NMRAL1 (UniProt Q9HBL8),1.01 ± 0.04
19,QRSL1 (UniProt Q9H0R6),0.947 ± 0.01

row,Target,NP40-soluble protein abundance
1,UniProt Q9C0B5 and related entries,1.02 ± 0.017
2,UniProt Q9H1I8 and related entries,1.02 ± 0.023
3,MTIF3 (UniProt Q9H2K0),0.995 ± 0.017
4,WDR54 (UniProt Q9H977),0.992 ± 0.022
5,UniProt Q9H2U1 and related entries,1.05 ± 0.028
6,UniProt Q9H0C5 and related entries,0.947 ± 0.1
7,LHPP (UniProt Q9H008),1.03 ± 0.03
8,ETNK1 (UniProt Q9HBU6),0.979 ± 0.062
9,UniProt Q9NP87,1.05 ± 0.046
10,REXO4 (UniProt Q9GZR2),1.05 ± 0.048
11,GHITM (UniProt Q9H3K2),0.986 ± 0.092
12,PNN (UniProt Q9H307),0.984 ± 0.17
13,UniProt Q9NPB8 and related entries,1.02 ± 0.014
14,MIS12 (UniProt Q9H081),1.03 ± 0.063
15,UniProt Q9HAT2 and related entries,1.035 ± 0.0034
16,TSPYL1 (UniProt Q9H0U9),0.9849 ± 0.0075
17,UniProt Q9H2V7 and related entries,1 ± 0.032
18,FTO (UniProt Q9C0B1),0.993 ± 0.056
19,UniProt Q9C0D3 and related entries,0.996 ± 0.05
